Measurements from paper PMC8366451.
Results are given in words; binding and its absence hold for the method and conditions named. Binding seen in cells or lysates may run through a third protein. Some entries that bind do so weakly or less than the wild type.

Chains of the proteins cited; added tags and fusions are not shown.
UniProt O75832: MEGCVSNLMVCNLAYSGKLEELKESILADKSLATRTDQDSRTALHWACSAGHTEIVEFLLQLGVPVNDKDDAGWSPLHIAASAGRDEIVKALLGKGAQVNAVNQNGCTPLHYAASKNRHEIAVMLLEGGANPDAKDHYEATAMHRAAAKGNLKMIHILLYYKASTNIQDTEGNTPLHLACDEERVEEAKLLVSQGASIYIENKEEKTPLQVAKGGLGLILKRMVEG
UniProt P08151: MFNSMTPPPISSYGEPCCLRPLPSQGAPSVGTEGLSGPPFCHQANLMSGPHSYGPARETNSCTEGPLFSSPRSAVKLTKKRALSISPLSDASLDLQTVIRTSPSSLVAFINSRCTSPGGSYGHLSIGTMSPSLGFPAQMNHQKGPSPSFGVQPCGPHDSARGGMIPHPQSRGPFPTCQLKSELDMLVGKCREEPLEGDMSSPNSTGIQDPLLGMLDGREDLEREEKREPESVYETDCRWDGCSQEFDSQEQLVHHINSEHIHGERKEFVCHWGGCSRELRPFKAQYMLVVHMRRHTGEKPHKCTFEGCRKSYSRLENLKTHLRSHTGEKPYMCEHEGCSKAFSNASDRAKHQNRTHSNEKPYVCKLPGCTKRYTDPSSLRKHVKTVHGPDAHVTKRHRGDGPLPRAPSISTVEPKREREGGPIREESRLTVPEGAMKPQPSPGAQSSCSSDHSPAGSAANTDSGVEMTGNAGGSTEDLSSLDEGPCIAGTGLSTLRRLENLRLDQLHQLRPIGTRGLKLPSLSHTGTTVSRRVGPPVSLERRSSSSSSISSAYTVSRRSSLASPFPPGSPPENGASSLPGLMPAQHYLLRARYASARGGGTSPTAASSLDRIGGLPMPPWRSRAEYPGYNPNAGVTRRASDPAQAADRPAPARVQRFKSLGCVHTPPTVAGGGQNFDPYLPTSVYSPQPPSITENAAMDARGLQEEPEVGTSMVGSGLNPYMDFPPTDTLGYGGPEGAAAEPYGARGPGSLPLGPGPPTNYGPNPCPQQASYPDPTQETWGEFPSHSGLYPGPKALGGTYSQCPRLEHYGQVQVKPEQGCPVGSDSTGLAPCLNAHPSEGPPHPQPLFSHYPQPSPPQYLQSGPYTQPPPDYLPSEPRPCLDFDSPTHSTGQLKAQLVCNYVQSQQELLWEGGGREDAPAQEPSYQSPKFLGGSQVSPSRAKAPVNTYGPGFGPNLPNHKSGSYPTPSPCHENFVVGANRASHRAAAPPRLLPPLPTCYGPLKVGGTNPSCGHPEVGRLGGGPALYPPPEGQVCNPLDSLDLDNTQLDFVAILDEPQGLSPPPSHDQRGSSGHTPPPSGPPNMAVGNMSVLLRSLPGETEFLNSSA

Target: gankyrin (human) (UniProt O75832)
Assay: co-IP; U2OS and MG63 cell lysates (25 mmol/L Tris-HCl, 150 mmol/L NaCl, 2 mmol/L EDTA, 0.1% Nonidet P-40) incubated with anti-gankyrin antibody and Protein A/G magnetic beads overnight at 4°C; Western blot with anti-Gli1; IgG as negative control

- binding: binds
Substance: Gli1 (from UniProt P08151 1-1106)
